{"source": "the supplement of paper PMC8256030", "note": "Several values for one entry are separate records, joined by “and”; a condition that tells them apart may be missing. Identical values can stand only once. Counter-ions that a name gives are not always drawn. This is one part of the list. Single values are uncertain here, since repeats match poorly.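 HEK293T cells were given each compound shortly before transfection with a reporter in which red mCherry is followed by the SARS-CoV-2 frameshift element and then GFP in the −1 frame, so GFP appears only after frameshifting.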", "data": [{"system": "HEK293T", "test": "percent viability (nuclei count) relative to control; higher = more viable cells", "conditions": "10 µM; 24 h", "values": [{"smiles": "CCOc1nc2cccc(C(=O)OCc3oc(=O)oc3C)c2n1Cc1ccc(-c2ccccc2-c2noc(=O)[nH]2)cc1", "percent viability": "347%"}, {"smiles": "CCC1NC(=O)c2cc(S(N)(=O)=O)c(Cl)cc2N1", "note": "(stereo not given) [quinethazone]", "percent viability": "342%"}, {"smiles": "CC(C)CCCCC(=O)N[C@@H](CCN)C(=O)N[C@@H](CN[C@@H](CCN)C(=O)N[C@H]1CCNC(=O)[C@H]([C@@H](C)O)NC(=O)[C@H](CCN)NC(=O)[C@H](CCN)NC(=O)[C@H](CC(C)C)NC(=O)[C@@H](CC(C)C)NC(=O)[C@H](CCN)NC1=O)[C@@H](C)O.CCC(C)CCCCC(=O)N[C@@H](CCN)C(=O)N[C@@H](CN[C@@H](CCN)C(=O)N[C@H]1CCNC(=O)[C@H]([C@@H](C)O)NC(=O)[C@H](CCN)NC(=O)[C@H](CCN)NC(=O)[C@H](CC(C)C)NC(=O)[C@@H](CC(C)C)NC(=O)[C@H](CCN)NC1=O)[C@@H](C)O", "note": "(stereo not given in full)", "percent viability": "151%"}, {"smiles": "CCN(CC)CCOC(=O)c1ccc(N)cc1Cl", "note": "[chloroprocaine]", "percent viability": "252%"}, {"smiles": "CN[C@H]1C(=O)N[C@@H]2Cc3ccc(cc3)Oc3cc4cc(c3O[C@@H]3O[C@H](C(=O)O)[C@@H](O)[C@H](O)[C@H]3NC(=O)CCCCCCCCC(C)C)Oc3ccc(cc3Cl)[C@@H](O)[C@@H]3NC(=O)[C@H](NC(=O)[C@@H]4NC(=O)[C@@H](NC2=O)c2cc(cc(O)c2Cl)Oc2cc1ccc2O)c1ccc(O)c(c1)-c1c(O[C@H]2O[C@H](CO)[C@@H](O)[C@H](O)[C@@H]2O)cc(O)cc1[C@@H](C(=O)NCCCN(C)C)NC3=O", "note": "[dalbavancin]", "percent viability": "138%"}, {"smiles": "C[C@]12CC[C@@H]3c4ccc(O)cc4C[C@@H](CCCCCCCCC[S+]([O-])CCCC(F)(F)C(F)(F)F)[C@H]3[C@@H]1CC[C@@H]2O", "note": "(stereo not given in full) [Fulvestrant]", "percent viability": "181%"}, {"smiles": "Cc1cccc(/C=N/N2CCN(C(c3ccccc3)c3ccccc3)CC2)n1", "note": "[ropizine]", "percent viability": "76.9%"}, {"smiles": "COc1cc(/C=C/C(=O)N2CCN(CC(=O)N3CCCC3)CC2)cc(OC)c1OC", "note": "[cinepazide]", "percent viability": "184%"}, {"smiles": "CC(=O)NC(Cc1ccccc1)C(=O)O", "note": "(stereo not given)", "percent viability": "328%"}, {"smiles": "O=C1OC(CN2CCOCC2)CN1/N=C/c1ccc([N+](=O)[O-])o1", "note": "(stereo not given)", "percent viability": "265%"}, {"smiles": "O=C([O-])c1ccccc1O.[Na+]", "percent viability": "208%"}, {"smiles": "CCOc1ccc(Cc2nccc3cc(OCC)c(OCC)cc23)cc1OCC", "note": "[ethaverine]", "percent viability": "38.6%"}, {"smiles": "CCc1c2c(nc3ccc(OC(=O)N4CCC(N5CCCCC5)CC4)cc13)-c1cc3c(c(=O)n1C2)COC(=O)[C@]3(O)CC", "percent viability": "261%"}, {"smiles": "C(=C\\c1ccccc1)/CN1CCN(C(c2ccccc2)c2ccccc2)CC1", "percent viability": "329%"}, {"smiles": "OC[C@H]1O[C@H](O[C@]2(CCl)O[C@H](CCl)[C@@H](O)[C@@H]2O)[C@H](O)[C@@H](O)[C@H]1Cl", "percent viability": "149%"}, {"smiles": "N=c1ccn2c(n1)O[C@H]1[C@H](O)[C@@H](CO)O[C@H]12", "note": "[ancitabine]", "percent viability": "301% and 193%"}, {"smiles": "CC(=O)O[C@H]1Cc2ccccc2N(C(N)=O)c2ccccc21", "note": "[Eslicarbazepine acetate]", "percent viability": "211%"}, {"smiles": "Clc1cccc(Cl)c1NC1=NCCN1", "note": "[Clonidine·HCl]", "percent viability": "281%"}, {"smiles": "C[C@]12CCC(=O)C=C1C=C[C@@H]1[C@@H]2CC[C@@]2(C)[C@H]1CC[C@@]21CCC(=O)O1", "note": "[Canrenone]", "percent viability": "228%"}, {"smiles": "CC[C@H](C)[C@@H]1NC(=O)[C@H](Cc2ccc(OC)cc2)NC(=O)CCCSC[C@@H](C(=O)N2CCC[C@H]2C(=O)N[C@@H](CC(C)C)C(=O)NCC(N)=O)NC(=O)[C@H](CC(N)=O)NC(=O)[C@H](CCC(N)=O)NC1=O", "percent viability": "272%"}, {"smiles": "NCCCC[C@H](N[C@@H](CCc1ccccc1)C(=O)O)C(=O)N1CCC[C@H]1C(=O)O", "note": "[Lisinopril]", "percent viability": "205%"}, {"smiles": "CC1CCC(NC(=O)N(CCCl)N=O)CC1", "note": "(stereo not given) [semustine]", "percent viability": "337%"}, {"smiles": "O=c1oc2c(O)c(O)cc3c(=O)oc4c(O)c(O)cc1c4c23", "note": "[ellagic acid]", "percent viability": "40.1%"}, {"smiles": "CO/N=C(\\C(=O)N[C@@H]1C(=O)N2C(C(=O)O)=C(CSC(=O)c3ccco3)CS[C@H]12)c1csc(N)n1", "percent viability": "156%"}, {"smiles": "CN1CCN(c2cc3c(cc2F)c(=O)c(C(=O)O)cn3-c2ccc(F)cc2)CC1", "percent viability": "49.8%"}, {"smiles": "Cc1cc(C(=O)NNCc2ccccc2)no1", "note": "[isocarboxazid]", "percent viability": "69.1%"}, {"smiles": "O=C1C[C@@]2(C(=O)N1)C(=O)N(Cc1ccc(Br)cc1F)C(=O)c1cccn12", "note": "[ranirestat]", "percent viability": "62.6%"}, {"smiles": "CC(=O)[C@@]1(O)CC[C@H]2[C@@H]3C=C(Cl)C4=CC(=O)[C@@H]5C[C@@H]5[C@]4(C)[C@H]3CC[C@@]21C", "note": "[cyproterone]", "percent viability": "153%"}, {"smiles": "CCCn1c(=O)[nH]c(=O)c2nc[nH]c21", "note": "[enprofylline]", "percent viability": "325%"}, {"smiles": "Nc1nc(N)c2nc(CNc3ccc(C(=O)N[C@@H](CCC(=O)O)C(=O)O)cc3)cnc2n1", "percent viability": "233%"}, {"smiles": "CC(=O)N[C@H]1[C@H]([C@H](O)[C@H](O)CO)OC(C(=O)O)=C[C@@H]1NC(=N)N", "note": "[zanamivir]", "percent viability": "237%"}, {"smiles": "O=C1CC[C@@H](C(=O)O)N1", "note": "[pidolic acid]", "percent viability": "401%"}, {"smiles": "COc1ccc(C2CNC(=O)NC2)cc1O[C@H]1C[C@@H]2CC[C@H]1C2", "note": "[atizoram]", "percent viability": "135%"}, {"smiles": "O=c1cc[nH]c(=S)[nH]1", "percent viability": "219%"}, {"smiles": "CC[C@@]1(O)C(=O)OCc2c1cc1n(c2=O)Cc2cc3cc(O)ccc3nc2-1", "note": "[10-Hydroxycamptothecin]", "percent viability": "86.9%"}, {"smiles": "CCOC(=O)c1nc(=O)c2cc3cc(OC)c(OC)cc3nc2[nH]1", "note": "[pirolate]", "percent viability": "136%"}, {"smiles": "Cc1onc(-c2ccccc2)c1C(=O)N[C@@H]1C(=O)N2[C@@H]1SC(C)(C)[C@@H]2C(=O)O", "percent viability": "221%"}, {"smiles": "CCCC(=O)Nc1ccc(OCC(O)CNC(C)C)c(C(C)=O)c1", "note": "(stereo not given) [acebutolol]", "percent viability": "167%"}, {"smiles": "CCc1cccc2cc(C(O)CNC(C)(C)C)oc12", "note": "(stereo not given) [bufuralol]", "percent viability": "76.6%"}, {"smiles": "OCC(CO)N[C@H]1C[C@](O)(CO)[C@@H](O)[C@H](O)[C@H]1O", "note": "[voglibose]", "percent viability": "204%"}]}]}
